Results reported in paper PMC4869123 (Scientific Reports, 2016).

Test: general procedure: Fmoc solid-phase peptide synthesis; Rink resin
Settings: for final HPLC purity: UV254

Substance	final HPLC purity (whole synthesis) [%]	also measured
Ac-ITVTIPADLWDWIKK(Me) 2-NH 2	95	–
ITVK(PEG5)IPADLWDWINK(Me)2	–	final HPLC purity (conjugation step): 95%
ITVK(PEG21)IPADLWDWINK(Me)2	–	final HPLC purity (conjugation step): 95%
ITVTIPK(PEG5)DLWDWINK(Me)2	–	final HPLC purity (conjugation step): 95%
ITVTIPK(PEG21)DLWDWINK(Me)2	–	final HPLC purity (conjugation step): 95%
IVVTMPADLWDWIRA (N-acetyl)	95	–
IVVTVPADLWDWIRA	95	–
PEPTIDE1{I.T.V.T.I.P.A.D.L.W.D.W.I.N.[KMe2].[am]}|PEPTIDE2{I.T.V.T.I.P.A.D.L.W.D.W.I.N.[KMe2].[am]}|CHEM1{[PEG21]}$PEPTIDE1,CHEM1,1:R1-1:R1|PEPTIDE2,CHEM1,1:R1-1:R2$$$V2.0	–	final HPLC purity (conjugation step): 95%
PEPTIDE1{[ac].A.V.V.T.M.P.A.D.L.W.D.W.I.R.A.[am]}$$$$V2.0	95	–
PEPTIDE1{[ac].H.V.T.I.P.A.D.L.W.D.W.I.N.K.[am]}$$$$V2.0	95	–
PEPTIDE1{[ac].I.A.V.T.M.P.A.D.L.W.D.W.I.R.A.[am]}$$$$V2.0	93	–
PEPTIDE1{[ac].I.H.V.T.I.P.A.D.L.W.D.W.I.N.[am]}$$$$V2.0	95	–
PEPTIDE1{[ac].I.H.V.T.I.P.A.D.L.W.D.W.I.[am]}$$$$V2.0	95	–
PEPTIDE1{[ac].I.H.V.T.I.P.A.D.L.W.D.W.[am]}$$$$V2.0	95	–
PEPTIDE1{[ac].I.H.V.T.M.P.A.D.L.W.D.W.I.R.A.[am]}$$$$V2.0	95	–
PEPTIDE1{[ac].I.Q.V.T.M.P.A.D.L.W.D.W.I.R.A.[am]}$$$$V2.0	95	–
PEPTIDE1{[ac].I.R.V.T.M.P.A.D.L.W.D.W.I.R.A.[am]}$$$$V2.0	95	–
PEPTIDE1{[ac].I.T.V.T.I.P.A.D.L.W.D.W.I.K.[KMe2].[am]}|PEPTIDE2{[PEG21NHEt]}$PEPTIDE1,PEPTIDE2,15:R3-1:R2$$$V2.0	–	final HPLC purity (conjugation step): 95%; conjugation yield (conjugation step, on peptide 49): 28%
PEPTIDE1{[ac].I.T.V.T.I.P.A.D.L.W.D.W.I.K.[KMe2].[am]}|PEPTIDE2{[ac].I.T.V.T.I.P.A.D.L.W.D.W.I.K.[KMe2].[am]}|CHEM1{[PEG21]}$PEPTIDE1,CHEM1,15:R3-1:R1|PEPTIDE2,CHEM1,15:R3-1:R2$$$V2.0	–	final HPLC purity (conjugation step): 95%; conjugation yield (conjugation step, on PEG21 bispentafluoroester 50): 74%
PEPTIDE1{[ac].I.T.V.T.I.P.A.D.L.W.D.W.I.N.[KMe2].[am]}$$$$V2.0	95	–
PEPTIDE1{[ac].I.T.V.T.M.P.A.D.L.W.D.W.I.R.A.[am]}$$$$V2.0	95	–

Substance	final HPLC purity (whole synthesis) [%]	also measured
PEPTIDE1{[ac].I.V.A.T.M.P.A.D.L.W.D.W.I.R.A.[am]}$$$$V2.0	93	–
PEPTIDE1{[ac].I.V.V.A.M.P.A.D.L.W.D.W.I.R.A.[am]}$$$$V2.0	95	–
PEPTIDE1{[ac].I.V.V.T.A.P.A.D.L.W.D.W.I.R.A.[am]}$$$$V2.0	95	–
PEPTIDE1{[ac].I.V.V.T.I.P.A.D.L.W.D.W.I.R.A.[am]}$$$$V2.0	95	–
PEPTIDE1{[ac].I.V.V.T.M.A.A.D.L.W.D.W.I.R.A.[am]}$$$$V2.0	93	–
PEPTIDE1{[ac].I.V.V.T.M.P.A.A.L.W.D.W.I.R.A.[am]}$$$$V2.0	95	–
PEPTIDE1{[ac].I.V.V.T.M.P.A.D.A.W.D.W.I.R.A.[am]}$$$$V2.0	95	–
PEPTIDE1{[ac].I.V.V.T.M.P.A.D.L.A.D.W.I.R.A.[am]}$$$$V2.0	95	–
PEPTIDE1{[ac].I.V.V.T.M.P.A.D.L.W.A.W.I.R.A.[am]}$$$$V2.0	95	–
PEPTIDE1{[ac].I.V.V.T.M.P.A.D.L.W.D.A.I.R.A.[am]}$$$$V2.0	95	–
PEPTIDE1{[ac].I.V.V.T.M.P.A.D.L.W.D.W.A.R.A.[am]}$$$$V2.0	95	–
PEPTIDE1{[ac].I.V.V.T.M.P.A.D.L.W.D.W.I.A.A.[am]}$$$$V2.0	95	–
PEPTIDE1{[ac].I.V.V.T.M.P.A.D.L.W.D.W.I.K.A.[am]}$$$$V2.0	95	–
PEPTIDE1{[ac].I.V.V.T.M.P.A.D.L.W.D.W.I.M.A.[am]}$$$$V2.0	95	–
PEPTIDE1{[ac].I.V.V.T.M.P.A.D.L.W.D.W.I.N.A.[am]}$$$$V2.0	95	–
PEPTIDE1{[ac].I.V.V.T.M.P.A.D.L.W.D.W.I.R.A.[am]}$$$$V2.0	95	–
PEPTIDE1{[ac].I.V.V.T.M.P.A.D.L.W.D.W.I.R.K.[am]}$$$$V2.0	95	–
PEPTIDE1{[ac].I.W.V.T.M.P.A.D.L.W.D.W.I.R.A.[am]}$$$$V2.0	95	–
PEPTIDE1{[ac].I.Y.V.T.M.P.A.D.L.W.D.W.I.R.A.[am]}$$$$V2.0	95	–
PEPTIDE1{[ac].T.I.P.A.D.L.W.D.W.I.N.K.[am]}$$$$V2.0	95	–
PEPTIDE1{[ac].V.T.I.P.A.D.L.W.D.W.I.N.K.[am]}$$$$V2.0	95	–

End groups of sequences in plain letters are not given here. Strings that start with PEPTIDE1 are HELM notation: dots part the residues, brackets hold end groups and non-standard residues.
